Record: PubChem BioAssay AID743121 (NCATS, 2013)
The deposit covers about 26,000 reagents; below is a random part of them. 167 of them (0.63%) count as active. 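Calls are per gene from RSA p-values that are not deposited; an individual active-marked siRNA can sensitise only weakly.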 A number with no mark means an inactive call. Reagents against one gene are numbered here. Not all columns of the deposit are shown. No sequences are given here.

- Assay: 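Partners whose loss is lethal together with topoisomerase I blockade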 (primary screen)
- Cell system: MDA-MB-231 cells, a human breast cancer line
- Knock-down reagent: single siRNA against human genes, 20 nM siRNA (0.8 pmol per well)
- Time to read-out: 120 h (drug added 48 h after transfection, read 72 h later)
- Challenge: camptothecin 20 nM (about EC30) for 72 h; vehicle 0.1% DMSO in parallel plates
- Measurement: 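CellTiter-Glo ATP signal, scaled to control siRNA as percent viability; sensitisation given as log2 of untreated divided by camptothecin-treated viability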
- Direction: log2 vehicle/camptothecin viability: higher = stronger sensitisation to camptothecin
- Hit rule: 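Each gene scored by redundant siRNA activity (RSA) over its individual siRNA ratios; a gene is called active at p < 0.001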

no.	Target gene	siRNA no.	log2 vehicle/camptothecin viability
1	FZD6	1	0.082
2	FZD6	2	-0.166
3	FZD6	3	-0.936
4	FZD6	4	-0.233
5	TERT	1	0.0705
6	TERT	2	0.555
7	TERT	3	-0.415
8	TERT	4	0.178
9	IL25	1	-0.368
10	IL25	2	-0.371
11	IL25	3	0.261
12	IL25	4	-0.176
13	SFTPD	1	-0.46
14	SFTPD	2	-0.237
15	SFTPD	3	-0.495
16	SFTPD	4	-0.0791
17	ARG1	1	-0.388
18	ARG1	2	-0.195
19	ARG1	3	-0.617
20	ARG1	4	0.0926
21	KCNS3	1	0.251
22	KCNS3	2	-0.274
23	KCNS3	3	-0.244
24	KCNS3	4	-0.134
25	PAH	1	-0.231
26	PAH	2	-0.295
27	PAH	3	0.0228
28	PAH	4	0.303
29	SULF1	1	0.114
30	SULF1	2	0.199
31	SULF1	3	0.195

Next part, starting with the last 3 of the part before.
no.	Target gene	siRNA no.	log2 vehicle/camptothecin viability
29	SULF1	1	0.114
30	SULF1	2	0.199
31	SULF1	3	0.195
32	DUSP11	1	-0.409
33	DUSP11	2	1.21
34	DUSP11	3	-0.117
35	DUSP11	4	-0.28
36	SDC2	1	-0.236
37	SDC2	2	-0.154
38	SDC2	3	0.0452
39	GPR108	1	-0.198
40	GPR108	2	-0.0338
41	GPR108	3	0.114
42	GPR108	4	0.189
43	MAP3K15	1	-0.162
44	MAP3K15	2	-0.276
45	MAP3K15	3	-0.0332
46	MAP3K15	4	-0.106
47	MAP3K15	5	-0.357
48	MAP3K15	6	-0.412
49	TSG101	1	0.167 (active)
50	TSG101	2	0.532 (active)
51	TSG101	3	1.43 (active)
52	TSG101	4	1.2 (active)
53	NR4A3	1	-0.24
54	NR4A3	2	-0.235
55	NR4A3	3	-0.0273
56	TBL3	1	-0.346
57	TBL3	2	-0.605
58	TBL3	3	-0.313
59	TBL3	4	-0.361
60	QRFPR	1	0.129
61	QRFPR	2	-0.192
62	QRFPR	3	-0.0716
63	QRFPR	4	-0.511
64	MINPP1	1	-0.241
65	MINPP1	2	0.138
66	MINPP1	3	-0.265
67	MINPP1	4	-0.0263
68	CTSH	1	-0.196
69	CTSH	2	-0.334
70	CTSH	3	0.221
71	CTSH	4	0.162
